Experimental data reported in PMC7192513.
Results are given in words; binding and its absence hold for the method and conditions named. In cells and extracts the contact can be indirect. These calls come from enrichment with a bait or labelling near it, and not all partners need be listed.

T1: Kelch protein K13 (P. falciparum (endogenous in Cam3.II and CamWT parasites)) (UniProt Q8IDQ2)
T1 sequence: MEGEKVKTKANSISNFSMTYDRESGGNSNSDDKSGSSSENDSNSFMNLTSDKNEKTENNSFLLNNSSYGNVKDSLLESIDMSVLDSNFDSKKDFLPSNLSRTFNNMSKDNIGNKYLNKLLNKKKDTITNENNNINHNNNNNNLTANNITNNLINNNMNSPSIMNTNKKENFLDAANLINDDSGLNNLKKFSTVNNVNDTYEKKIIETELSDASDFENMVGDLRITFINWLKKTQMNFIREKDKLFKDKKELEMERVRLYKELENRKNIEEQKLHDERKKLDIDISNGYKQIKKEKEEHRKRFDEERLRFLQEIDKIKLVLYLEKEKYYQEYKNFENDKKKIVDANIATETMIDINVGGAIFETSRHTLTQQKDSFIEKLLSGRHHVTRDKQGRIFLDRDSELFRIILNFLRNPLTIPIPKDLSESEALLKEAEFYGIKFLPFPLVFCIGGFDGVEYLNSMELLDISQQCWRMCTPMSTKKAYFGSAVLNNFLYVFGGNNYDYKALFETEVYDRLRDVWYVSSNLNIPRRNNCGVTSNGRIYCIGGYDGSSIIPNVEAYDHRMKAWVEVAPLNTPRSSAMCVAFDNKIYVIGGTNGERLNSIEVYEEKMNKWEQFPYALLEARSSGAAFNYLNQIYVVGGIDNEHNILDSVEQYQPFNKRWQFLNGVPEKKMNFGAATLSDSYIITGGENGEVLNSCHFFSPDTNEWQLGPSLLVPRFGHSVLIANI

B1: Rab11B (protein, UniProt Q5F2Q2 1-229)
chain: MSNEEYDHLYKIILVGDATVGKTHLLSRYIRGSLPSVAKATIGVEFATRTIPLAVGGTVKAQIWDTAGQERYRSITSAHYRRSAGAILVYDITKKKTFLSISKWLEEIRQNADKDIVIMLVGNKVDLTEEDETKRKVTYEQGANFARENNLFFAEASAVSKLNVKHIFENLLQEIYNNRLKNNNRSFSNRSVATCESAIQLTKARSVIKLNEVYDNQSEDNNMNKVKCC
B2: eIF2α (protein, UniProt Q8IBH7 1-329)
chain: MTEMRVKADLGDCRFYKKKFPEVDDLIMVKVNRIEDMGAYVSILEYNDMEGMILMSELSKRRFRSVNKLIRVGRHEVVLVLRVDSQKGYIDLSKRRVSPKDIIKCEEKFSKSKKVHQTVRHVAKEHGITVEELNEKAIWPLYERYGHALDALKEATMNPENVFKGLDISEEIKNSLLKDIKLRLTPQALKLRGRIDVWCFGYEGIDAVKEALKKGKEISNDKVSINIKLIAPPQYVIVTSCHDKDLGMAKIQEAMKVISDKIKEYKGGDFKQQGEILVIGGDEEKRLEELLDKHDGISSDDDDYNTSDEDDENSSEEDENTSEDEEEED
B3: falcilysin (protein, UniProt Q76NL8 1-1193)
chain: MNLTKLMKVIGYINIITNCVQSFTNRADKKRYNVFAKSFINTINTNLYTFKAVMSKTPEWIHEKSPKHNSYDIIEKRYNEEFKMTYTVYQHKKAKTQVISLGTNDPLDVEQAFAFYVKTLTHSGKGIPHILEHSVLSGSKNYNYKNSIGLLEKGTLHTHLNAYTFNDRTVYMAGSMNNKDFFNIMGVYMDSVFQPNVLENKYIFETEGWTYEVEKLKEDEKGKAEIPQMKDYKVSFNGIVYNEMKGALSSPLEDLYHEEMKYMFPDNVHSNNSGGDPKEITNLTYEEFKEFYYKNYNPKKVKVFFFSKNNPTELLNFVDQYLGQLDYSKYRDDAVESVEYQTYKKGPFYIKKKYGDHSEEKENLVSVAWLLNPKVDKTNNHNNNHSNNQSSENNGYSNGSHSSDLSLENPTDYFVLLIINNLLIHTPESVLYKALTDCGLGNNVIDRGLNDSLVQYIFSIGLKGIKRNNEKIKNFDKVHYEVEDVIMNALKKVVKEGFNKSAVEASINNIEFILKEANLKTSKSIDFVFEMTSKLNYNRDPLLIFEFEKYLNIVKNKIKNEPMYLEKFVEKHFINNAHRSVILLEGDENYAQEQENLEKQELKKRIENFNEQEKEQVIKNFEELSKYKNAEESPEHLNKFPIISISDLNKKTLEVPVNVYFTNINENNNIMETYNKLKTNEHMLKDNMDVFLKKYVLKNDKHNTNNNNNNNNNMDYSFTETKYEGNVPILVYEMPTTGIVYLQFVFSLDHLTVDELAYLNLFKTLILENKTNKRSSEDFVILREKNIGSMSANVALYSKDDHLNVTDKYNAQALFNLEMHVLSHKCNDALNIALEAVKESDFSNKKKVIDILKRKINGMKTTFSEKGYAILMKYVKAHLNSKHYAHNIIYGYENYLKLQEQLELAENDFKTLENILVRIRNKIFNKKNLMVSVTSDYGALKHLFVNSNESLKNLVSYFEENDKYINDMQNKVNDPTVMGWNEEIKSKKLFDEEKVKKEFFVLPTFVNSVSMSGILFKPGEYLDPSFTVIVAALKNSYLWDTVRGLNGAYGVFADIEYDGSVVFLSARDPNLEKTLATFRESAKGLRKMADTMTENDLLRYIINTIGTIDKPRRGIELSKLSFLRLISNESEQDRVEFRKRIMNTKKEDFYKFADLLESKVNEFEKNIVIITTKEKANEYIANVDGEFKKVLIE

Biological target: T1, Kelch protein K13 (P. falciparum (endogenous in Cam3.II and CamWT parasites))
Test: affinity purification with mass spectrometry; co-IP with a mix of the K13 mAbs E3 and D9 (2.5 ug each) coupled to Pierce Direct IP columns; 500 ug parasite lysate in Pierce IP Lysis Buffer; cultures enriched in 0-12 hpi rings of Cam3.II (K13 WT, C580Y, R539T) and CamWT (WT, C580Y); eluates by LC-MS/MS; 6 experiments, 13 test samples, 10 negative controls

| Binder | binding |
| --- | --- |
| B1 | binds |
| B2 | binds |
| B3 | binds |
